Binding data for one substance are collected here from article PMC4509781.

Protein sequences, listed by entry. Tags and fused reporters are not part of them. Residues count along the entry.
UniProt Q12824, residues 1-115: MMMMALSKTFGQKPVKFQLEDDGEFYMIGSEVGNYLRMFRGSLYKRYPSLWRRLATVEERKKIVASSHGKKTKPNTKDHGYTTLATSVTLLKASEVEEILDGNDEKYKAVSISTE

The target in the assay is INI1 N-terminal winged helix domain (residues 1-115 of human INI1) (human) (UniProt Q12824). Description: SEC; gel filtration on a HiLoad 26/60 Superdex 75 column during purification; elution volume compared with that of a monomer; both purified. In general terms: In gel filtration, larger molecules generally elute earlier.

Results are given in words; binding and its absence hold for the method and conditions named.

Turning to “INI1 N-terminal winged helix domain (residues 1-115 of human INI1) (from UniProt Q12824 1-115) (domain or fragment)”, the binding result is “no binding”.
